Measured values reported in US20090163406A1, “COMPOSITIONS AND METHODS FOR DIAGNOSING AND TREATING BRAIN CANCER AND IDENTIFYING NEURAL STEM CELLS” (THE REGENTS OF THE UNIVERSITY OF CALIFORNIA, priority 2004, published 2009).
For at least one compound, name, drawing or mass did not settle the structure.

Tested on: E14 wildtype progenitors
Assay: Neurosphere formation from rapamycin-treated E14 progenitors
Assay type: cell-based, mouse
Conditions: rapamycin alone or with MELK siRNA

CO[C@H]1C[C@@H]2CC[C@@H](C)[C@@](O)(O2)C(=O)C(=O)N2CCCC[C@H]2C(=O)O[C@H]([C@H](C)C[C@@H]2CC[C@@H](O)[C@H](OC)C2)CC(=O)[C@H](C)/C=C(\C)[C@@H](O)[C@@H](OC)C(=O)[C@H](C)C[C@H](C)/C=C/C=C/C=C/1C [rapamycin]
numbers of neurospheres formed: diminished the numbers of neurospheres formed
